In the assay the target is large-conductance calcium-activated potassium (BKCa) channel alpha subunit (rat (endogenous in mesenteric arteries)) (UniProt Q62976). As to the kind of experiment: co-IP; mesenteric arteries of SHR and WKY rats lysed in non-denaturing lysis buffer; 1.5 mg lysate with 8 ug rabbit polyclonal anti-KCNMA1 antibody for 2 h, protein A/G PLUS-agarose for 12 h at 4 °C, washed three times with PBS; blot with mouse monoclonal anti-IP3R1; weaker band from SHR than from WKY.

By UniProt entry, the sequences of proteins in these tests, tags left out.
UniProt Q62976: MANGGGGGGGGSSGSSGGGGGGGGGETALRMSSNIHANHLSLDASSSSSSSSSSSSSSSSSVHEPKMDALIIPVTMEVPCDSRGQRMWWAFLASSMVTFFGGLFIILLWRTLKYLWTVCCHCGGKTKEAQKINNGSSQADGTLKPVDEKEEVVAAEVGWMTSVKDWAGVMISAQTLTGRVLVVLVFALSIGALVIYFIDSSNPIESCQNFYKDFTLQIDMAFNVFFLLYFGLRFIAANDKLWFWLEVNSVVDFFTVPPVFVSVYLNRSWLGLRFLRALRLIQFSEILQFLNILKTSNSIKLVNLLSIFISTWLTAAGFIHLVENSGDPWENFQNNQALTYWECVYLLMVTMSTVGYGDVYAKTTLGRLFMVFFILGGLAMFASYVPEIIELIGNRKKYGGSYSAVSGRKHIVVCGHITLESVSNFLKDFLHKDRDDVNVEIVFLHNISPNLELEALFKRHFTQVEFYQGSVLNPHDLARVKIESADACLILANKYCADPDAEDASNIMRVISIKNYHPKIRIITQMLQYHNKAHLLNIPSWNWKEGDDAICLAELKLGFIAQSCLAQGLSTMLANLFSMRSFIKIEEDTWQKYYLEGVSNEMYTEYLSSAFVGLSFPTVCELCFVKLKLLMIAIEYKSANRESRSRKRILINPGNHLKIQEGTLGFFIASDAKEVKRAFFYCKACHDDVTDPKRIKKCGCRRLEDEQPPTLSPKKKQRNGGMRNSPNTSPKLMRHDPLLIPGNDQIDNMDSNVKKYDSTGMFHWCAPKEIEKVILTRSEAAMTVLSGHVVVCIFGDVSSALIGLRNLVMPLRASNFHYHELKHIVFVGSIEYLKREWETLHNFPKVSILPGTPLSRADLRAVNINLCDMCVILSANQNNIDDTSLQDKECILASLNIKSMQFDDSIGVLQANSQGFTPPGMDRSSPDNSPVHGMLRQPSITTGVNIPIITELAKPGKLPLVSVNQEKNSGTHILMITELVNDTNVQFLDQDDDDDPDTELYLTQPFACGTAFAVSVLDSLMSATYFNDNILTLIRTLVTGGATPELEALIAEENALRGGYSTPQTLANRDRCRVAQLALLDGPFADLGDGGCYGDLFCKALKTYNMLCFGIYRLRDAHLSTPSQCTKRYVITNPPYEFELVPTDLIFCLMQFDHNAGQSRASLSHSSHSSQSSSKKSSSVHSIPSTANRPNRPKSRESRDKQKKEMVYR
UniProt P29994: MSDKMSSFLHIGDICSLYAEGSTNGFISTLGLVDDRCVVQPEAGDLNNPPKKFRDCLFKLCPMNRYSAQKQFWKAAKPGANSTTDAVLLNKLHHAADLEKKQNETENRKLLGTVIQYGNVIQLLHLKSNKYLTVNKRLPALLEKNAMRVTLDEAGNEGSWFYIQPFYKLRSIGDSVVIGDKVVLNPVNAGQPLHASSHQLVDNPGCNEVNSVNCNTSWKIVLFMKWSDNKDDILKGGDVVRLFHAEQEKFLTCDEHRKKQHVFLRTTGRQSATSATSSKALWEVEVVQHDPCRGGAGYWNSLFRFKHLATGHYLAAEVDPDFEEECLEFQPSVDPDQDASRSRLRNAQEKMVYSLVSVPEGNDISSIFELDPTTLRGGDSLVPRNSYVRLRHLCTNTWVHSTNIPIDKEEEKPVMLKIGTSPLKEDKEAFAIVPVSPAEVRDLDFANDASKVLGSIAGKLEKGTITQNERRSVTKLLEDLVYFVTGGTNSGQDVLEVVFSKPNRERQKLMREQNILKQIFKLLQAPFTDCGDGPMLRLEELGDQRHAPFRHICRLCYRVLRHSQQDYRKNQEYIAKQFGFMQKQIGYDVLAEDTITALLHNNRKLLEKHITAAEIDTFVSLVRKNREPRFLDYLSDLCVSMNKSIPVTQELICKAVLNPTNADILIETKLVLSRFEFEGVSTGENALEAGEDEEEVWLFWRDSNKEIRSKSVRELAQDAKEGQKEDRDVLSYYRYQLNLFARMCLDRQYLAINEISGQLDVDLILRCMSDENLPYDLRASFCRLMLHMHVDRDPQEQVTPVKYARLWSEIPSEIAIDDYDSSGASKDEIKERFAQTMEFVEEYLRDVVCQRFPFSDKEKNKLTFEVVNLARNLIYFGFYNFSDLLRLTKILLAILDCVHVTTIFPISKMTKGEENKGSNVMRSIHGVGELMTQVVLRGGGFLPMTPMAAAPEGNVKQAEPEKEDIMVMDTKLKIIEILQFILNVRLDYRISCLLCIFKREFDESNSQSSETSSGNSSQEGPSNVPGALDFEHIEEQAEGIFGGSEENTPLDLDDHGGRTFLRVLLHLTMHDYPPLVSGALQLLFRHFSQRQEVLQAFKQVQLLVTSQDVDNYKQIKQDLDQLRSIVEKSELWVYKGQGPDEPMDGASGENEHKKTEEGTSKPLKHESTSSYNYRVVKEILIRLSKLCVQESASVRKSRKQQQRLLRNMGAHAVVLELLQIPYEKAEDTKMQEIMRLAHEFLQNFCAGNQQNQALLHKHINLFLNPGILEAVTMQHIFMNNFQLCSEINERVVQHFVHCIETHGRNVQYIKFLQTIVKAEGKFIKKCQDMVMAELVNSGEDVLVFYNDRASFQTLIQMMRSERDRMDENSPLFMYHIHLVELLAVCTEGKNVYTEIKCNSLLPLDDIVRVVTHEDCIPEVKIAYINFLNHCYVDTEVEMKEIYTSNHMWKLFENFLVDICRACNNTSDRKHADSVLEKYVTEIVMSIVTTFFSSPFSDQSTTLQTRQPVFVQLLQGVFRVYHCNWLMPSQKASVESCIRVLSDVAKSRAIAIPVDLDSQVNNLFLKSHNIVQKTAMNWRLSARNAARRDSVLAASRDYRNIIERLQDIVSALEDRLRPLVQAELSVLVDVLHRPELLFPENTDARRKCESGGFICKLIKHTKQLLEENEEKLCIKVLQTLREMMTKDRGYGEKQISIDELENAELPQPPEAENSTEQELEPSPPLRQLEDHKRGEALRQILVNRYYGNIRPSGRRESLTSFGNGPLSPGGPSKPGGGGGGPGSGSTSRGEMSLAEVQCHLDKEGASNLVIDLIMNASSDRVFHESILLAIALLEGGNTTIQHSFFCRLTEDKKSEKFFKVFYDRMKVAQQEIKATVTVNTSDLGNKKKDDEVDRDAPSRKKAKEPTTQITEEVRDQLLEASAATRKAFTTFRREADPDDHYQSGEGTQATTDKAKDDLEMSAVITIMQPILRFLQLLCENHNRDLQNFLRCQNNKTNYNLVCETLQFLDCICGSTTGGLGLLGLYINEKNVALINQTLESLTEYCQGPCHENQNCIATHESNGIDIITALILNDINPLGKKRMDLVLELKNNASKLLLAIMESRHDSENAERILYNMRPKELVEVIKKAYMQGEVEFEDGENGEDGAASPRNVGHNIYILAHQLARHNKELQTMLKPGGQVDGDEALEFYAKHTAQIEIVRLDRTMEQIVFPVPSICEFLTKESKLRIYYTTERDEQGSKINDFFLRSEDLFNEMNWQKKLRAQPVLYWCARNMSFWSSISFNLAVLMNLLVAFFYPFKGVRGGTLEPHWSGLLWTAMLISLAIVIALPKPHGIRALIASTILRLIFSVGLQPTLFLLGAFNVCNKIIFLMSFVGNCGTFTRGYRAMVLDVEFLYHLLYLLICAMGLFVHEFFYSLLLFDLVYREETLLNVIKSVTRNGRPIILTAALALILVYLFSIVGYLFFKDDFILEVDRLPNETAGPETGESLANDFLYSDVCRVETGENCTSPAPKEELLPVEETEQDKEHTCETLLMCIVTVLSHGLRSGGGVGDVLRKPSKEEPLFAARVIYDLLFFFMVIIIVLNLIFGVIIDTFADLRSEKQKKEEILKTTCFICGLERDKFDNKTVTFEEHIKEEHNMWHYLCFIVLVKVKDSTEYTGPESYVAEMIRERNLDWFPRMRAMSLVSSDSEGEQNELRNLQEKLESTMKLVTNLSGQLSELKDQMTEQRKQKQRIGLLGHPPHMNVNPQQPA

No constants are given. Whether binding was seen depends on the method and setting. Binding seen in cells or lysates may run through a third protein. Some entries that bind do so weakly or less than the wild type.

Take “inositol 1,4,5-trisphosphate receptor 1 (from UniProt P29994 1-2750)”: the binding entry is listed as “binds”.

These data come from article PMC10341547.
